In patent US9248103B2, “Method for improving water solubility of slightly soluble substance” (Kabushiki Kaisha Sangi, priority 2012, dated 2016):
For at least one compound, name, drawing or mass did not settle the structure.

Key:
Type in all cases: physicochemical
[1] = Dissolution test of poorly-soluble substances, 2nd fluid for disintegration test (pH 6.8) of the Japanese Pharmacopoeia
Description: (§1) From initiation of the test, the mixed solution was stirred with a stirrer having a length of 15 mm. The rotation number of the stirrer was 120 rpm, and all of the tests were conducted in a thermostat at 37±0.5° C. Two types of test solutions, namely, distilled water and 2nd fluid for disintegration test (pH 6.8) of the Japanese Pharmacopoeia were used. As such 2nd fluid for disintegration test of the Japanese Pharmacopoeia, a solution prepared by diluting the 10-fold concentration solution of Kanto Kagaku Co., Ltd. with distilled water was used.
(§2) A comparative test was carried out in the same manner as that described above, with the exception that, instead of a substance with improved aqueous solubility coated with hydroxyapatite microparticles and with a pH adjuster and/or a surfactant, a poorly-soluble substance or the like was used in the same amount as the substance with improved aqueous solubility.
(§3) […] The thus sampled solution was centrifuged at 12,000 rpm for 5 minutes. Thereafter, the substance with improved aqueous solubility and hydroxyapatite microparticles, which had not been dissolved in the solution, were removed. In the case of the comparative test, the poorly-soluble substance or the like, which had not been dissolved in the solution, was removed. An aliquot of this supernatant was immediately frozen. The frozen sample was freeze-dried, and it was then used as a sample in the measurement of the amount of the substance with improved aqueous solubility, which had been dissolved in the test solution. The dissolved poorly-soluble substance was measured mainly using a dual wavelength absorption photometer.

[2] = Dissolution test of poorly-soluble substances, distilled water
Description: as §1, §2, §3

[3] = pH of aqueous solution after 60 minutes in dissolution test using distilled water; conditions: Bezafibrate
Description: Moreover, as described above, since the pH of a local portion that is contacted with a poorly-soluble substance is more important than the pH of a solution as a whole, when an acidic substance is dissolved, desired effects can be obtained even though the pH is not extremely high. It is sufficient if a pH adjuster is used such that the pH of an aqueous solution of a substance with improved aqueous solubility becomes pH 8 or less. […] Herein, the pH of an aqueous solution indicates a pH value that is measured 60 minutes after the addition of a target substance to 50 mL of distilled water in an amount 2 times larger than the substance dissolved in 360 minutes. More specifically, the pH of an aqueous solution indicates a pH value that is measured according to [Dissolution test of poorly-soluble substances] in the below-mentioned Examples.
as §1
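Also: Comparative example rows not the inventive coated formulation.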

SMILES: CC(C)(Oc1ccc(CCNC(=O)c2ccc(Cl)cc2)cc1)C(=O)O [2-6, Bezafibrate]
- Dissolved amount, elution time 1 min ([1]; 1 min): 805.1 µg/mL
- Dissolved amount, elution time 10 min ([1]; 10 min): 2866.5 µg/mL
- Dissolved amount, elution time 30 min ([1]; 30 min): 2942.6 µg/mL
- Dissolved amount, elution time 60 min ([1]; 60 min): 2965.5 µg/mL
- Dissolved amount, elution time 180 min ([1]; 180 min): 3031.4 µg/mL
- Dissolved amount, elution time 360 min ([1]; 360 min): 3096.6 µg/mL
- Dissolved amount, elution time 1 min ([2]; 1 min): 10.4 µg/mL
- Dissolved amount, elution time 3 min ([2]; 3 min): 11.6 µg/mL
- Dissolved amount, elution time 10 min ([2]; 10 min): 10.9 µg/mL
- Dissolved amount, elution time 30 min ([2]; 30 min): 11.9 µg/mL
- Dissolved amount, elution time 60 min ([2]; 60 min): 12.3 µg/mL
- Dissolved amount, elution time 180 min ([2]; 180 min): 12.9 µg/mL
- Dissolved amount, elution time 360 min ([2]; 360 min): 13.2 µg/mL
- pH at 60 minutes after dissolution [3]: 4.3
